The assay has as its target T1, OTUD4 (endogenous, HCT116 cells) (human (endogenous in HCT116)) (UniProt Q01804).
T1 sequence: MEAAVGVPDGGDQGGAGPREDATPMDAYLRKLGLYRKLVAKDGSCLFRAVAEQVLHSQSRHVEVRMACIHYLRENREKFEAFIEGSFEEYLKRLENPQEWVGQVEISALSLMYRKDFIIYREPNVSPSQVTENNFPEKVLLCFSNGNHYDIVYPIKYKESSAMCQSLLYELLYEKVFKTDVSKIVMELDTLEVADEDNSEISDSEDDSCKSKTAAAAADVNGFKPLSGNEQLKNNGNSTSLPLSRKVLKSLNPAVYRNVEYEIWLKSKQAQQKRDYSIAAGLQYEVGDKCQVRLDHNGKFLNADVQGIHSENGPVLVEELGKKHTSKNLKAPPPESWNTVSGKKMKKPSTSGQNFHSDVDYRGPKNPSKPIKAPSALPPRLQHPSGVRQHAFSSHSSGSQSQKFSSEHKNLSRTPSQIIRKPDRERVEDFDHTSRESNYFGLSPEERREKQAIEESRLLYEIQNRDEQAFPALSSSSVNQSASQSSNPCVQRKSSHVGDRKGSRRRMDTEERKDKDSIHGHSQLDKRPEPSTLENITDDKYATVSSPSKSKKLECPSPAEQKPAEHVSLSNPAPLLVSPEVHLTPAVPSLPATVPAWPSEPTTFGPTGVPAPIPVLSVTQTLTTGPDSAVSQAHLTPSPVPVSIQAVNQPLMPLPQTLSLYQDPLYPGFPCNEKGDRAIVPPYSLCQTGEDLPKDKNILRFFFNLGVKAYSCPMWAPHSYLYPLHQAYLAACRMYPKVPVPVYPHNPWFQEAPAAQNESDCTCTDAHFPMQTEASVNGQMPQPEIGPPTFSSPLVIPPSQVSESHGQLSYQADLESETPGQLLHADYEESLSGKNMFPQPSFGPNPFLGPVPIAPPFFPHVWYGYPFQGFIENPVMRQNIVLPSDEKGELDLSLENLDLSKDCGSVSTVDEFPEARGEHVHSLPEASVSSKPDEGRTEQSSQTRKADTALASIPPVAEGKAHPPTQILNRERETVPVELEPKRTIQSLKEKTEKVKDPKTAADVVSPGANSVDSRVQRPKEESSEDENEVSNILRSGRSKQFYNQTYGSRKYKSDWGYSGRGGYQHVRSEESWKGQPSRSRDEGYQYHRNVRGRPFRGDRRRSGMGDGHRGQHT
Briefly: co-IP; HCT116 cell extracts incubated with no antibody, an XPC antibody or an anti-OTUD4 antibody; protein A/G beads; Western blot with an XPC antibody. (Immunoblotting shows a protein as a band on a membrane.)

These are yes or no findings as the source states them, for the method shown. Binding seen in cells or lysates may run through a third protein. Some entries that bind do so weakly or less than the wild type.

As for “XPC (endogenous, HCT116 cells) (from UniProt Q01831 1-940)”, the binding result is recorded as “binds”.

For the origin of these results see publication PMC3907802.
